Among the data in article PMC10746710 are binding values, retold here.

By UniProt entry, the sequences of proteins in these tests, tags left out. Where a name states a change or a piece, a line headed by the entry shows the natural chain unless it says otherwise. Chains listed by the source or under a name are the forms on record and can include a tag or linker.
UniProt Q8N6T7: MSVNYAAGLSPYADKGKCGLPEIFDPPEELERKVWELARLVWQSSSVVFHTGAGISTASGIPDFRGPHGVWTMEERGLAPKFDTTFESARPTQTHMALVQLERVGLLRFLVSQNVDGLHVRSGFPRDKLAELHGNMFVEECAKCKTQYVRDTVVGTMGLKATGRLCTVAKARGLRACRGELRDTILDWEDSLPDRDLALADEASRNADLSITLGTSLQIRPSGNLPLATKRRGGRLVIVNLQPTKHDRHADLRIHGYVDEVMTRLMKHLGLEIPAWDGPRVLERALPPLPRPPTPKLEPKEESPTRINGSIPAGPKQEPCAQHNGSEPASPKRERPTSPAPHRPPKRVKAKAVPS
retinoid-related orphan nuclear receptor gamma t (RORγt), endogenous in HBE cells (P51449-2, form named): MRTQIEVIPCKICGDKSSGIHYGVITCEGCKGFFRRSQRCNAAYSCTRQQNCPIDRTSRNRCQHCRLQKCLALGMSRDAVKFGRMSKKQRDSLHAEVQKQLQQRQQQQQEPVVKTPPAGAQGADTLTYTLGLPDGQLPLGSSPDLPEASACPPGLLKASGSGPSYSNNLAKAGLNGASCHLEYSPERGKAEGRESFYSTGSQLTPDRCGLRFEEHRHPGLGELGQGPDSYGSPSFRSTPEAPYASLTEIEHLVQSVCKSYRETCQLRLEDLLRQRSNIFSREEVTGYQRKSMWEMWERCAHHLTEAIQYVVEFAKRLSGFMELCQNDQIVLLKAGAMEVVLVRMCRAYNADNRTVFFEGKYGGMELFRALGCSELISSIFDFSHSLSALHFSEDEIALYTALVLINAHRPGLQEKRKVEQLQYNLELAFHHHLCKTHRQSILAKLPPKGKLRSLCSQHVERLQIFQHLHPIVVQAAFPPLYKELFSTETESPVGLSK

In the assay the target is sirtuin 6 (SIRT6), endogenous in HBE cells (human (endogenous in HBE)) (UniProt Q8N6T7). Kind of assay: affinity purification with mass spectrometry; co-immunoprecipitation of SIRT6, immunoprecipitate digested with trypsin and analysed by mass spectrometry; cells not given.

No constants are given. Whether binding was seen depends on the method and setting. In cells and extracts the contact can be indirect. These calls come from enrichment with a bait or labelling near it, and not all partners need be listed.

Consider “retinoid-related orphan nuclear receptor gamma t (RORγt), endogenous in HBE cells (from UniProt P51449-2 1-497)”, for which the binding result is listed as “binds”.
